Data reported in paper PMC5297731.
No constants are given. Whether binding was seen depends on the method and setting. Binding seen in cells or lysates may run through a third protein. Some results given as binding are weak or reduced against the parent protein; the word gives no strength. Tags and fused reporters may be left off the sequences shown.

Amino acid sequences for entries named in this document (tags omitted).
UniProt P61026: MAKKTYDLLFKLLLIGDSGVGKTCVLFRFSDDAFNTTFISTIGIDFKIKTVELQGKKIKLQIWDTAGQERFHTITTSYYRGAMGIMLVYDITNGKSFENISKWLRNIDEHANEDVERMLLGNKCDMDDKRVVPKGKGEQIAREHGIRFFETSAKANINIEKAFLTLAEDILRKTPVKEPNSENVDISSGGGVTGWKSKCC

Biological target: T1, Male Germ Cells Rab GTPase-Activating Protein (MGCRABGAP), FLAG-tagged (human) (UniProt Q8IYX1)
T1 sequence: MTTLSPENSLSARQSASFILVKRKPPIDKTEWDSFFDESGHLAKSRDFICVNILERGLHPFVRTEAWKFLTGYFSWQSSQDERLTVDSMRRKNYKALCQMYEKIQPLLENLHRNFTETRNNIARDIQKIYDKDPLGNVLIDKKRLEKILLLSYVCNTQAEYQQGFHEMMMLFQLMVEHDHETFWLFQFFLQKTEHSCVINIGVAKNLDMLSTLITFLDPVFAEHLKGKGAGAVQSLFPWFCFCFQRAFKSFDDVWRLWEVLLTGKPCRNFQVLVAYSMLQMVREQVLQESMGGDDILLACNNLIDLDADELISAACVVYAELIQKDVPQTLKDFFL
Assay: co-IP; lysates of NT2D1 cells transfected with pFLAG-MGCRABGAP (4 mg protein in 1 mL, precleared with protein A/G beads) incubated overnight at 4 °C with anti-FLAG antibody or control IgG; washed twice with PBS; immunoblot with anti-RAB10 antibody

- binding: binds
Substance: RAB10 (from UniProt P61026 1-200)
